Source: article PMC9837939

Sequences of proteins named here, by UniProt entry; tags and fusion partners are left off.
UniProt Q9ULQ0: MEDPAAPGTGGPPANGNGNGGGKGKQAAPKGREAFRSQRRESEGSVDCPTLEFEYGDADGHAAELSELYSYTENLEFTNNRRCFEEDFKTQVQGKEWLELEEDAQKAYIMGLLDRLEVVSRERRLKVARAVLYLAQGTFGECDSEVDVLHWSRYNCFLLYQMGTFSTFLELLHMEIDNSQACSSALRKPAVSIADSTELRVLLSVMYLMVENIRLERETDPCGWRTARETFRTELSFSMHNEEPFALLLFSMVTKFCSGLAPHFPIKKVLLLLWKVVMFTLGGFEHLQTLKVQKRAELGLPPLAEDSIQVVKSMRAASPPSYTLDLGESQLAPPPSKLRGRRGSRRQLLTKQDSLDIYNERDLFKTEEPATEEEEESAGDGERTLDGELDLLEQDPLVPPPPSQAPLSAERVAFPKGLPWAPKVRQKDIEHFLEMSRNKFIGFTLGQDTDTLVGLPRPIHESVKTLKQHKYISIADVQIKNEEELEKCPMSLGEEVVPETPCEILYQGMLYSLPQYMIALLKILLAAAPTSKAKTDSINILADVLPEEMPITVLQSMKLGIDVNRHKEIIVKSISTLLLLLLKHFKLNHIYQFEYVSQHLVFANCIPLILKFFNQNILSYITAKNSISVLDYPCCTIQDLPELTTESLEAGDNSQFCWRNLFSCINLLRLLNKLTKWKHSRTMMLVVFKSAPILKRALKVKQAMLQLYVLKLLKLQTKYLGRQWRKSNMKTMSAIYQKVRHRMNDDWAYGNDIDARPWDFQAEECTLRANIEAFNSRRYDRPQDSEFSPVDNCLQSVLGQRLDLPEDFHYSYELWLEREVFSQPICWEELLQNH
UniProt O00425: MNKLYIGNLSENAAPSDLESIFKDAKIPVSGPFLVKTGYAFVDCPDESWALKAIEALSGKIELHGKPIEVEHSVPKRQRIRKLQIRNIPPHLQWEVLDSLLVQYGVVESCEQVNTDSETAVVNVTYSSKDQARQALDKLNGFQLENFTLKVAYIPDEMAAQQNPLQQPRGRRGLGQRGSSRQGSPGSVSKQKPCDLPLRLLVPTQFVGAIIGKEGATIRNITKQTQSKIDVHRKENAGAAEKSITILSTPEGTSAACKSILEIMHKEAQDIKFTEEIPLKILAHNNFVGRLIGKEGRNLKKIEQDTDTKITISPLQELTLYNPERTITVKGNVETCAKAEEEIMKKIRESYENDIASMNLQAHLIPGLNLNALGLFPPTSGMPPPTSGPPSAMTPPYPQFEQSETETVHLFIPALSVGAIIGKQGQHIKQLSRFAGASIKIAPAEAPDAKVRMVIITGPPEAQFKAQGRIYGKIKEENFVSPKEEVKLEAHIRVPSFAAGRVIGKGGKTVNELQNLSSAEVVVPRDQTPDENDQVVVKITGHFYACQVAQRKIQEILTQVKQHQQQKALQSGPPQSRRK

Target: STRIP2, bait of the immunoprecipitation coupled with mass spectrometry (UniProt Q9ULQ0)
Assay: affinity purification with mass spectrometry; immunoprecipitation of STRIP2 against a control sample, silver-stained gel, differential band analysed by tandem mass spectrometry; cells not given

binding: binds
Substance: IGF2BP3 found by mass spectrometry in the STRIP2 immunoprecipitate (from UniProt O00425 1-579)

These are yes or no findings as the source states them, for the method shown. Binding seen in cells or lysates may run through a third protein. Here binding means that the protein was enriched with, or labelled near, the bait; the list need not be complete.
